From PubChem BioAssay AID1487 (National Center for Advancing Translational Sciences (NCATS), 2009)
Where “and” joins values, the source holds several entries; their conditions need not be identical. Equal values may be shown once. The list shows a part of the results. The main result of the screen is listed elsewhere. These columns were measured beside it and carry no call. The list favours compounds with an active or inconclusive main result. Words in brackets tell the shape of the fitted curve; partial curves, single points and poor fits give uncertain potencies.

Assay: qHTS Assay for Modulators of Lamin A Splicing
Details: HeLa LMNA splicing GFP/RFP minigene ratio, 48 h
Method in brief: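 S3 HeLa cells stably expressing lamin A-EGFP splicing minigene plus DsRed2, 600 cells/well, 48 h compound exposure at 37C. Laser-scanning cytometry; analysed as GFP (500-530 nm)/RFP (575-640 nm) total intensity ratio; 0.5% DMSO vehicle.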

[1] = measured here: RFP viability control channel
[2] = measured here: GFP splicing reporter channel

SMILES | AC50 [1] | AC50 [2]
Cc1nc(N2CCC(C)CC2)c2nnn(Cc3ccccc3)c2n1 | 31.6 µM [rising, single point] | 
N=c1nc(N2CCCCC2)cc(N)n1O | 0.251 µM [falling, full curve] | 0.891 nM [falling, full curve] and 631 nM [falling, full curve, poor fit]
CCC1CN(C(=O)N2CCC(C(=O)NCc3cc(OC)ccc3OC)CC2)c2ccccc2O1 (stereo not drawn) |  | 5.01 µM [rising, partial curve, poor fit]
Cc1ccc(S(=O)(=O)N2CCCCC2)cc1NC(=O)c1ccc2c(=O)n3c(nc2c1)CCCCC3 | 17.8 µM [rising, single point] | 
O=C(CN(c1cccc(C(F)(F)F)c1)S(=O)(=O)c1ccc(Cl)c([N+](=O)[O-])c1)NCc1ccc(F)cc1 |  | 35.5 µM [falling, single point]
Cn1c(C(=O)NCc2ccc(F)cc2)cc2cc(S(=O)(=O)N3CCCCC3)ccc21 | 0.562 µM [rising, single point] | 
Nc1c(S(=O)(=O)c2cccs2)c2nc3ccccc3nc2n1/N=C/c1cccc(O)c1 | 31.6 µM [falling, partial curve, poor fit] | 35.5 µM [falling, single point]
Cc1cccc2nc(CSC(=N)N)c(Br)n12 | 31.6 µM [rising, single point] | 
COc1ccccc1Cn1c(CNS(=O)(=O)c2ccc(CC(C)C)cc2)nc2cccnc21 |  | 7.94 µM [falling, partial curve]
O=C(C1CCCN(S(=O)(=O)c2cccc3nsnc23)C1)N1CCc2ccccc2C1 (stereo not drawn) | 11.2 µM [rising, partial curve] | 7.08 µM [rising, partial curve, poor fit]
Cc1cccc2c1N(CCOc1ccccc1)C(=O)C2=O | 2.51 µM [rising, partial curve, poor fit] | 2.51 µM [rising, partial curve, poor fit]
COc1ccc(C)cc1NS(=O)(=O)c1ccc(NC(=O)CN(c2cc([N+](=O)[O-])ccc2C)S(C)(=O)=O)cc1 | 3.55 µM [rising, single point] | 
O=C(/C=C\c1ccccc1OC(=O)c1ccccc1F)c1cc2ccccc2o1 | 35.5 µM [falling, single point] | 35.5 µM [falling, single point]
Cc1cccc(C)c1OCC(=O)N1CCC(c2nc3ccccc3o2)CC1 | 0.0141 µM [falling, full curve, poor fit] | 
COc1cccc(-c2nnc(NC(=O)c3ccc(Cl)s3)o2)c1 |  | 35.5 µM [rising, single point]
CC(OC(=O)CC(NC(=O)c1ccccc1Cl)c1ccccc1)C(=O)Nc1cccc(Cl)c1Cl (stereo not drawn) | 10 µM [rising, partial curve] | 14.1 µM [rising, single point]
Cc1ccc(C)c(NS(=O)(=O)c2c(C)ccc3nsnc23)c1 |  | 5.01 µM [rising, partial curve]

SMILES | AC50 [1] | AC50 [2]
O=C(Nc1ccccc1Cl)C1CCN(Cc2cnn(-c3ccccc3)c2-n2cccc2)CC1 | 11.2 µM [rising, partial curve] | 
COc1ccc2nc(NC(=O)C(NS(=O)(=O)c3cccs3)C(C)C)sc2c1 (stereo not drawn) | 8.91 µM [rising, partial curve] | 
Cn1c(COc2ccc(Cl)cc2)nnc1SCc1ncc(-c2ccccc2)o1 | 12.6 µM [rising, partial curve] | 
CC(=O)N1CCN(S(=O)(=O)c2cccc(C(=O)Nc3ccc4c(c3)CCC4)c2)CC1 | 17.8 µM [rising, partial curve, poor fit] | 
CC(=O)N1CCCc2cc(S(=O)(=O)N3CCCC(C(=O)NCc4ccccc4)C3)ccc21 (stereo not drawn) | 0.0282 µM [falling, full curve, poor fit] | 
C/C(=N\NC(=O)c1ccccc1O)C1C(=O)c2ccccc2C1=O | 35.5 µM [falling, single point] | 35.5 µM [falling, single point]
COc1ccc(C(=O)NNC(=O)CN2CCC(n3nnc4cc(F)ccc43)CC2)cc1 | 22.4 µM [rising, single point] | 
O=c1c(CCc2ccccc2)nc2cnc(Oc3ccccc3)nc2n1C1CC1 |  | 22.4 µM [falling, single point]
COc1cc(OC)c(NC(=O)CC(C)=O)cc1Cl |  | 6.31 µM [falling, single point]
COC(=O)c1ccc(NC(=O)N2CCC(CN3CCc4ccccc4C3)CC2)cc1 | 0.02 µM [falling, full curve, poor fit] | 0.02 µM [falling, full curve, poor fit]
O=C(N/N=C/C(Br)=C/c1ccccc1)c1n[nH]c2c1CCC2 | 0.501 µM [rising, full curve] | 35.5 µM [falling, single point]
CC(Sc1nnc(Nc2ccccc2)s1)C(=O)NC1CCCc2ccccc21 (stereo not drawn) | 31.6 µM [rising, single point] | 
CC(=O)Oc1ccc(C(c2ccc(OC(C)=O)cc2)c2ccccn2)cc1 | 14.1 µM [falling, single point] and 1.41 µM [falling, partial curve, poor fit] and 10 µM [rising, partial curve] | 794 nM [falling, partial curve, poor fit] and 12.6 nM [falling, full curve, poor fit] and 10 µM [rising, single point]
CC(=O)c1c(C(C)=O)c(C)n(C(c2ccccc2)c2ccccc2)c1C | 14.1 µM [falling, partial curve, poor fit] | 
CC1=C(C(=O)Nc2ccc(C)cc2C)C(c2ccccc2F)n2nc(SCC(=O)c3ccc(C)cc3)nc2N1 (stereo not drawn) | 17.8 µM [falling, partial curve, poor fit] | 
Oc1ccc(/C=N\Nc2cc(N3CCOCC3)nc(N3CCOCC3)n2)c(O)c1 | 20 µM [rising, partial curve] | 

Already shown: an excerpt of the list.
SMILES | AC50 [1] | AC50 [2]
N=c1nc(N2CCCCC2)cc(N)n1O | 0.251 µM [falling, full curve] | 0.891 nM [falling, full curve] and 631 nM [falling, full curve, poor fit]
CCC1CN(C(=O)N2CCC(C(=O)NCc3cc(OC)ccc3OC)CC2)c2ccccc2O1 (stereo not drawn) |  | 5.01 µM [rising, partial curve, poor fit]
